According to patent US4798823A, “New cyclosporin analogs with modified "C-9 amino acids"” (Merck & Co., Inc., priority 1987, dated 1989):
Part of at least one peptide drawing is inferred or uncertain, most often the ends.

Amino acid sequences for entries named in this document (tags omitted).
UniProt P62935, whole entry: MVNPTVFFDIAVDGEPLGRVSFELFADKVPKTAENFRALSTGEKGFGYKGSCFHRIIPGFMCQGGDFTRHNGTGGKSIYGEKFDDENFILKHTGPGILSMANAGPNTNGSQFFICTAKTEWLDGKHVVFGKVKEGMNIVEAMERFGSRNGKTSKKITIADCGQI

Molecular target: cyclophilin (Bos taurus, UniProt P62935)
Assay: Cyclophilin binding assay
Settings: relative to cyclosporin A (CsA); average of multiple assays
Text: ^a This assay is described in detail by R. Handschumacher et. al.,

**Q.** For `CC[C@@H]1NC(=O)[C@H]([C@H](O)[C@H](C)CSC(C)C)N(C)C(=O)[C@H](C(C)C)N(C)C(=O)[C@H](CC(C)C)N(C)C(=O)[C@H](CC(C)C)N(C)C(=O)[C@@H](C)NC(=O)[C@H](C)NC(=O)[C@H](CC(C)C)N(C)C(=O)[C@H](C(C)C)NC(=O)[C@H](CC(C)C)N(C)C(=O)CN(C)C1=O` [(d)], which “CYCLOPHILIN BINDING (% OF CsA Activity)” value is on record?
**A.** 184 % OF CsA Activity
